Data taken from ChEMBL document CHEMBL3988442, “University of Dundee, Small-Polar-MMV Screening Library” (2021).

Chains of the proteins cited; added tags and fusions are not shown.
UniProt I6X8D2, whole entry: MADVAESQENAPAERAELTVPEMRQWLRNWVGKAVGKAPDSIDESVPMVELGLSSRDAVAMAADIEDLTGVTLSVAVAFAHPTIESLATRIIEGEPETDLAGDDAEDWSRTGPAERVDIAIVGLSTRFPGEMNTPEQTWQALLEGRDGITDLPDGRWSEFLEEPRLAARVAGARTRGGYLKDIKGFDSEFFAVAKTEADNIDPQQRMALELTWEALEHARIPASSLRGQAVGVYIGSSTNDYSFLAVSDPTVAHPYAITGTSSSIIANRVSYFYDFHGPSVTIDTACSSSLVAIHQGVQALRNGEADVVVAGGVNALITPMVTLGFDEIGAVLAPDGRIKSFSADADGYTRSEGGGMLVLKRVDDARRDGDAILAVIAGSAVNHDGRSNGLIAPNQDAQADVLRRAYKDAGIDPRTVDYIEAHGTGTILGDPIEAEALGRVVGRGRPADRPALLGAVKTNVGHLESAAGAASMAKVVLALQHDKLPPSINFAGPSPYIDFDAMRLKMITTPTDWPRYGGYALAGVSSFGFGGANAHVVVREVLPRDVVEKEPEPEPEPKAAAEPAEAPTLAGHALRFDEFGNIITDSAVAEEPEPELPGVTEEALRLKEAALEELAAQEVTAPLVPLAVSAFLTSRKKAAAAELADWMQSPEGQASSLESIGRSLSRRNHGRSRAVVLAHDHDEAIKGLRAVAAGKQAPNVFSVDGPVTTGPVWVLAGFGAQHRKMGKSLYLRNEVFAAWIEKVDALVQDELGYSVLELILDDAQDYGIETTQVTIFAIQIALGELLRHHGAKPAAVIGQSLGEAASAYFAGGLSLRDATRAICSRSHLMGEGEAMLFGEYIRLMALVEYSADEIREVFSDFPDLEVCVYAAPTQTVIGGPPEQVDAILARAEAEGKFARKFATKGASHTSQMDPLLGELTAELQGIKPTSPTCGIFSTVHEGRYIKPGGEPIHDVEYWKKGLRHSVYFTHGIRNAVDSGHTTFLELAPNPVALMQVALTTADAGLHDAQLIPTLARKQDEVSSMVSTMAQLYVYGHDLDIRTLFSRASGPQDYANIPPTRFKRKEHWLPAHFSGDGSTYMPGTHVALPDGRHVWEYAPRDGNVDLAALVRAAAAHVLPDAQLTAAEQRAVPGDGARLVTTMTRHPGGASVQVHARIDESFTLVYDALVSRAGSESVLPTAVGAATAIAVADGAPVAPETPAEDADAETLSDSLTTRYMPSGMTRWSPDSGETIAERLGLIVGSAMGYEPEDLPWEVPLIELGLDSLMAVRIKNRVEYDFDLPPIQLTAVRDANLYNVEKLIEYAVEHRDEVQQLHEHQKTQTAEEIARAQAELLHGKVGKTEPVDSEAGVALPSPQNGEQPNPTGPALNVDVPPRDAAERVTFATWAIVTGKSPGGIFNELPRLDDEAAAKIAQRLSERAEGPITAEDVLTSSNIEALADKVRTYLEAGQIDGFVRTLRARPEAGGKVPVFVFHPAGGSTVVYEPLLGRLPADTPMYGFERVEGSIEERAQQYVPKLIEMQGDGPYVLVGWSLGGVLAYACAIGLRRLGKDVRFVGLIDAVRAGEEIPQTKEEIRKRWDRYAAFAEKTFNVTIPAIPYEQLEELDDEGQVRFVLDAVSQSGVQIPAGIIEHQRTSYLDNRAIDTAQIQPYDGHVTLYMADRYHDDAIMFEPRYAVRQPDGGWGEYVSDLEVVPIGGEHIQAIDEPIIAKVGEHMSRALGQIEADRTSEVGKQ

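Polyketide synthase Pks13, Mycobacterium tuberculosis (UniProt I6X8D2). Enzyme assay of the thioesterase domain of polyketide synthase 13; the read-out is not stated. Compounds at 30 µM. Higher reads as stronger inhibition (inferred from which compounds were picked for retests). Of about 67,000 compounds tested this way, about 300 (0.46%) reached 50% or more in at least one test.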

Each number is a percent effect as filed. The record does not define 0% and 100%; most values in the screen are far below 50% and negative numbers occur (in some assays of this library far below -100). This is an unselected part of the compounds tested.

structure | Percent Effect
CCN(C)c1ncnc2c1CCN(Cc1ccc(OC)cc1)CC2 | -2.957%
O=C(Nc1ccccc1)N1CCN(Cc2noc(C3CC3)n2)CC1 | -23.65%
CCc1sc(-c2nnc(CNC(C)Cn3cccn3)o2)cc1C (stereo not shown) | -54.94%
Cc1cc2[nH]c(=O)oc2cc1S(=O)(=O)N1CCCC(N(C)C)CC1 (stereo not shown) | -10.36%
COC(=O)C1(NCc2nc(C)c(C)o2)CCC(C)CC1 (stereo not shown) | -35.41%
CN1CCc2c(C#N)c(NCCCO)n3cnnc3c2C1 | -1.218%
Cc1cnc(CN2CCCC(c3nc4ccccc4n3C(C)C)C2)o1 (stereo not shown) | -2.13%
O=C(C1CC1)N1CCN(Cc2coc(-c3ccc(Cl)cc3)n2)CC1 | -9.612%
C[S+]([O-])c1nncn1CC(=O)c1ccc(Br)cc1 (stereo not shown) | -60.11%
Cc1ccc(CN2CCC3(CC2)C(=O)Nc2ccccc23)s1 | -30.03%
CSC1=Nc2c(cnn2-c2ccc(Cl)cc2)C2=NCCCN12 | -15.12%
COc1c(CNC2CCCOc3ccccc32)c(C)nn1C (stereo not shown) | -19.62%
Cc1nc(Nc2nccs2)cc(C2CCCN2)n1 (stereo not shown) | 6.737%
CCOC(=O)N1CCN(c2nc(CCN)nc3sc(C)c(C)c23)CC1 | -51.1%
O=C1CCC[C@]2(CN(S(=O)(=O)N3CCCCC3)C[C@H]2c2cccnc2)N1 | 4.191%
CSC(C)CCN(Cc1ccccn1)Cc1sccc1C (stereo not shown) | 9.11%
CNC(=O)CN1CCOCC12CCN(Cc1ccncc1)CC2 | 7.209%
CC(=O)N1CCCC1CCc1ccc(Cl)nn1 (stereo not shown) | -9.753%
CCCc1noc(CN2CCN(CCC(C)C)CC2)n1 | -31.29%
COc1cc(OC)cc(N2CCC(NCc3cc[nH]n3)C2)c1 (stereo not shown) | -3.513%
CC(C)c1cc(C(=O)N2CCC3(CCc4ccccc4C(=O)N3)C2)no1 (stereo not shown) | 1.173%
CN(C)CCN1CCN(C)C2(CCN(c3nccs3)CC2)C1=O | 1.903%
Cc1nnc(NC(=O)CN(C)C2CCCN(c3cccnn3)C2)s1 (stereo not shown) | 6.919%
COc1ccc(C#N)cc1CSCCN1CCOCC1 | -17.57%
CCN(CC)C(=O)C1CCCN(CC(=O)Nc2c(C)nn(CC)c2C)C1 (stereo not shown) | -0.5931%
N#Cc1cc(NC(=O)c2cc[nH]n2)ccc1N1CCC(O)CC1 | 26.56%
CN(C)C(=O)C1(Oc2ccc(Cl)cc2)CCNCC1 | -9.048%
CCS(=O)(=O)N1CCc2c(nc(C3CCCN3)nc2NC)C1 (stereo not shown) | -245.5%
Cn1ccnc1C1CCCN(C(=O)c2ccncc2F)C1 (stereo not shown) | -6.305%
Cc1nc(N2CCN(C(=O)c3ccncc3)CC2)c2c(n1)c(C)nn2C | -1.061%
Cc1nccn1C1CCCN(C(=O)c2cc(Cl)c3c(c2)OCO3)C1 (stereo not shown) | -15%
COc1ccc(NC(=O)CCC2CCCN(S(=O)(=O)C3CC3)C2)cc1Cl (stereo not shown) | -31.85%
Cc1ccc(CN2CCC3(CC2)OC(C(=O)N(C)C)c2ccccc23)o1 (stereo not shown) | -23.14%
CCCc1nc(C(C)(C)NC(=O)C2CC(=O)N(C3CC3)C2)no1 (stereo not shown) | 7.408%
Cc1ccccc1CN(Cc1ccncc1)CC(C)C | -16.58%
Cc1nc2cc(-c3nccn3C)nn2c(N2CCCC2)c1C | 14.04%
CC(C)COc1cncc(N2CCCN(CC(F)(F)F)CC2)n1 | 32.09%
CC(O)(CNC(=O)c1cccnc1-n1cccn1)c1ccco1 (stereo not shown) | 4.361%
O=C1CCCN1CCc1noc(-c2ccc3[nH]cnc3c2)n1 | -16.84%
CN(Cc1ccsc1)C(=O)c1cc2c([nH]c1=O)CCCC2=O | 16.76%
CCOc1cc([C@@H]2N[C@H](c3nccs3)Cc3ccsc32)ccc1OC | 13.1%
O=C(c1ccc(-n2ccnc2)cc1)N1CCCC1 | -36.55%
Cn1ccn2ncc(C(=O)NCc3cccnc3N3CCCC(O)C3)c12 (stereo not shown) | -5.435%
COc1cccnc1NC(=O)COC1CCCC1 | -13.26%
N#Cc1ccc(N2CCCC(CO)(CCOc3ccccc3)C2)nc1 (stereo not shown) | 13.82%
Cc1nc2c(c(NC3CC3)n1)CCN(C(=O)CCc1cccnc1)CC2 | -24.91%
CCc1ncc2c(n1)CN(Cc1cn3ccsc3n1)CC2 | -12.21%
CCN(C)C(=O)c1ccnn1-c1ccc2ccccn12 | 18.54%
CN(Cc1cccnc1)[C@@H]1CN(C(=O)NC2CC2)[C@@H]2CCCO[C@H]12 | -20.56%
CCN1CCN(Cc2coc(-c3cccc(F)c3)n2)CC1 | -10.68%
COCCn1ccc(NC(=O)Nc2ccccn2)n1 | -4.246%
CCc1csc(C2CCCN(C(=O)c3ccncc3)C2)n1 (stereo not shown) | 7.478%

For reference, 3 entries once more:

With Cc1nc2c(c(NC3CC3)n1)CCN(C(=O)CCc1cccnc1)CC2 the screen gave -24.91%.
With CCS(=O)(=O)N1CCc2c(nc(C3CCCN3)nc2NC)C1 (stereo not shown) the screen gave -245.5%.
With Cc1cnc(CN2CCCC(c3nc4ccccc4n3C(C)C)C2)o1 (stereo not shown) the screen gave -2.13%.